Laboratory results from paper PMC10698277.
No constants are given. Whether binding was seen depends on the method and setting. In cells and extracts the contact can be indirect. Some entries that bind do so weakly or less than the wild type. Where a sequence is shown, tags or fusion partners need not be part of it. Values belong to the molecule of their own block, whether it stands above or below them.

Chains of the proteins cited; added tags and fusions are not shown.
UniProt P49815: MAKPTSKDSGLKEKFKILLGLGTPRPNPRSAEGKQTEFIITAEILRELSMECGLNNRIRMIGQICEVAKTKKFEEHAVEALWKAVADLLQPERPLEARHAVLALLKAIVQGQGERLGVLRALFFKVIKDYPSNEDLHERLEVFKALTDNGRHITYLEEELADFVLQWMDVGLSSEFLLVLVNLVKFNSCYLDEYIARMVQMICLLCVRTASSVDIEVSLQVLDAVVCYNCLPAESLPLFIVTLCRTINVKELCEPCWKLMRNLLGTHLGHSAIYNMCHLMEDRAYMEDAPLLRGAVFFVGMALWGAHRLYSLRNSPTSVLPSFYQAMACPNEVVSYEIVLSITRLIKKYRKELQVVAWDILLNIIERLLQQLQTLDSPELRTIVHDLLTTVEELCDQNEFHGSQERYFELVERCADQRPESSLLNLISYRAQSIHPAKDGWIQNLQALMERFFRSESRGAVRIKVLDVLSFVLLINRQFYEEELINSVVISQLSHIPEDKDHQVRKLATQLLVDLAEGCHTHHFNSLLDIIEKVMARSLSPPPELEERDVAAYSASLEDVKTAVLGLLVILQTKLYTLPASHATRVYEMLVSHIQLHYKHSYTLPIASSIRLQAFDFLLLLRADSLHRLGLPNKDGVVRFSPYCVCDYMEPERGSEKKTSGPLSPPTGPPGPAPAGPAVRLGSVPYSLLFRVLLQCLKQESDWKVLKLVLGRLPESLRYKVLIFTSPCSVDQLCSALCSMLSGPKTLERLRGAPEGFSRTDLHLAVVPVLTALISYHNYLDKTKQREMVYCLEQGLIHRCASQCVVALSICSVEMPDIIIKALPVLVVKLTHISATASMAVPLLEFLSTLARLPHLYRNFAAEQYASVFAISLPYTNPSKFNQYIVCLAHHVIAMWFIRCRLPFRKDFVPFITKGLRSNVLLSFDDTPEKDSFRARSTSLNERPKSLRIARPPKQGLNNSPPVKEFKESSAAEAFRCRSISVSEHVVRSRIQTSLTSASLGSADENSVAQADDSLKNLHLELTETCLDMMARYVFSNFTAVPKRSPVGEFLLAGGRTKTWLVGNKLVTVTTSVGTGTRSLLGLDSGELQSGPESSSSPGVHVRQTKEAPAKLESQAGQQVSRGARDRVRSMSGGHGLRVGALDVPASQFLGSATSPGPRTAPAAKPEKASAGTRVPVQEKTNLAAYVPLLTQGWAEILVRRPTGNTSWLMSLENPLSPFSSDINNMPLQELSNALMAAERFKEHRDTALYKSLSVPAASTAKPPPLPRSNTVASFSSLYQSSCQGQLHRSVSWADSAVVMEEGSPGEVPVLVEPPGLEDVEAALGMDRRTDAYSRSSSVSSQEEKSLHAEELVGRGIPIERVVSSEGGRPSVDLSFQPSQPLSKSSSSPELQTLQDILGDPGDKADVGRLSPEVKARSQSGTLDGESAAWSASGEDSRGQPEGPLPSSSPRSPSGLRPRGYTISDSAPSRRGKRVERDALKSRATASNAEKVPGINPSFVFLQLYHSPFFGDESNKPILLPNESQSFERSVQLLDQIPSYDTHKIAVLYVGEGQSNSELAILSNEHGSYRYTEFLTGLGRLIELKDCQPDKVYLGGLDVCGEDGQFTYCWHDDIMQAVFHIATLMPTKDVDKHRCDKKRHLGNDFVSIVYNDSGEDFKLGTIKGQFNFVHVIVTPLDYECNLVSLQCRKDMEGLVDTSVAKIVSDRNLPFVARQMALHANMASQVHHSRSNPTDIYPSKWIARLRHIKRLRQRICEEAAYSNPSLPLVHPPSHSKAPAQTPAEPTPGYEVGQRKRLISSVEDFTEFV
UniProt P31749: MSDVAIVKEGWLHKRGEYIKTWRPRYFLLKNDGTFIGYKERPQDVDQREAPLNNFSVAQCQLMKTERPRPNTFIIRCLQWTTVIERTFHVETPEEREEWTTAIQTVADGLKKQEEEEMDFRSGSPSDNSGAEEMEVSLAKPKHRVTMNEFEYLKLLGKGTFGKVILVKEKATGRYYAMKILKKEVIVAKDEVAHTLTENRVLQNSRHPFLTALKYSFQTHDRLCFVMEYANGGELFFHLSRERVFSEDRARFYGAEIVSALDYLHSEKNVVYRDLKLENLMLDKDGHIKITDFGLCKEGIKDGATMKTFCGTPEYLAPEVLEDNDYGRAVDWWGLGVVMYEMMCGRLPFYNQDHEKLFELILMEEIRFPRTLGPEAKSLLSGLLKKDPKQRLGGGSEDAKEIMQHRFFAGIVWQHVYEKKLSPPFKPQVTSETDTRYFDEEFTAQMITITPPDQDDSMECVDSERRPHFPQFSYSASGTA

Assays:
[1] = target: T1, GFP-tagged full-length CBAP (human) (UniProt Q8N9M5); test: co-IP; HEK293T co-transfected with GFP or CBAP-GFP and Flag-TSC2, HA-Akt1 or myc-TSC1; anti-GFP immunoprecipitation, blot with tag-specific antibodies
T1 sequence: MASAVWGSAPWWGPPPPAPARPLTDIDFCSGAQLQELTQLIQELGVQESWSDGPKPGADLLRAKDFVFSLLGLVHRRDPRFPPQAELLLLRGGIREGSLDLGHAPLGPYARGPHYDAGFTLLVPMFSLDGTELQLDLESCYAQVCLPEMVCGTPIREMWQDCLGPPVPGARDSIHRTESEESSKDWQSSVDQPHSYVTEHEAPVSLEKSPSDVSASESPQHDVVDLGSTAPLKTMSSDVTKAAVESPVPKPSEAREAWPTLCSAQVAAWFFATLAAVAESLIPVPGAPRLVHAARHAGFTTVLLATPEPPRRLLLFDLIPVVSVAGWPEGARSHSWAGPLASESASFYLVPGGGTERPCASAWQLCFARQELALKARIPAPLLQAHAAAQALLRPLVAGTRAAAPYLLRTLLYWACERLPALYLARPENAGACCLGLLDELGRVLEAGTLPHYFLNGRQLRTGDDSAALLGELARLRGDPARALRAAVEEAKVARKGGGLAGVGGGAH

[2] = target: T1, GFP-tagged full-length CBAP (human); test: co-IP; CBAP-KO HEK293T co-transfected with full-length or truncated CBAP-GFP, myc-Akt1 and Flag-TSC2; anti-GFP or anti-Flag immunoprecipitates blotted
[3] = target: T2, CBAP deletion mutant M8, GFP-tagged (human) (UniProt Q8N9M5); test: as above
T2 sequence: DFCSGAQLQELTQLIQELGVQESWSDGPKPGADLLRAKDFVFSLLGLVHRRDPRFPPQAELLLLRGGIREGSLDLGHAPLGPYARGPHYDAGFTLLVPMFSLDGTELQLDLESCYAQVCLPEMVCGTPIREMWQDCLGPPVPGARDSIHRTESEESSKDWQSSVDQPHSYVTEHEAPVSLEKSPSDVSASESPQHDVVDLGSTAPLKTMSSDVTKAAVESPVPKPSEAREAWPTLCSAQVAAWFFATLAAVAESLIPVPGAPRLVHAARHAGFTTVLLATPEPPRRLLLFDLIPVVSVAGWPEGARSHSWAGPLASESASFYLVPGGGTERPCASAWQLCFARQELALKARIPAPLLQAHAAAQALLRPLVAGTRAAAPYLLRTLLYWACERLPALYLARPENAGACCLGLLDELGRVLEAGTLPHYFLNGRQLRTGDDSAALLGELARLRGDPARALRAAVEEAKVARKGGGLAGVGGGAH

[4] = target: TSC2 (endogenous) (human (endogenous in Jurkat, CCRF-CEM, HeLa)) (UniProt P49815); test: co-IP; anti-CBAP immunoprecipitation from lysates of Jurkat cells expressing GFP vector or GFP-N26-CBAP, immunoblot

Molecule: myc-Akt1 (from UniProt P31749 1-480)
binding [2]: binds
binding [3]: binds

Molecule: MASAVWGSAPWWGPPPPAPARPLTDI (peptide, UniProt Q8N9M5 1-26) [GFP-N26-CBAP]
binding [4]: binds

Results, then the molecule that gave them:

binding [1]: binds
Molecule: HA-Akt1 (from UniProt P31749 1-480)

binding [1]: no binding
B1: Myc-TSC1 (protein, UniProt Q92574 1-1164)
chain: MAQQANVGELLAMLDSPMLGVRDDVTAVFKENLNSDRGPMLVNTLVDYYLETSSQPALHILTTLQEPHDKHLLDRINEYVGKAATRLSILSLLGHVIRLQPSWKHKLSQAPLLPSLLKCLKMDTDVVVLTTGVLVLITMLPMIPQSGKQHLLDFFDIFGRLSSWCLKKPGHVAEVYLVHLHASVYALFHRLYGMYPCNFVSFLRSHYSMKENLETFEEVVKPMMEHVRIHPELVTGSKDHELDPRRWKRLETHDVVIECAKISLDPTEASYEDGYSVSHQISARFPHRSADVTTSPYADTQNSYGCATSTPYSTSRLMLLNMPGQLPQTLSSPSTRLITEPPQATLWSPSMVCGMTTPPTSPGNVPPDLSHPYSKVFGTTAGGKGTPLGTPATSPPPAPLCHSDDYVHISLPQATVTPPRKEERMDSARPCLHRQHHLLNDRGSEEPPGSKGSVTLSDLPGFLGDLASEEDSIEKDKEEAAISRELSEITTAEAEPVVPRGGFDSPFYRDSLPGSQRKTHSAASSSQGASVNPEPLHSSLDKLGPDTPKQAFTPIDLPCGSADESPAGDRECQTSLETSIFTPSPCKIPPPTRVGFGSGQPPPYDHLFEVALPKTAHHFVIRKTEELLKKAKGNTEEDGVPSTSPMEVLDRLIQQGADAHSKELNKLPLPSKSVDWTHFGGSPPSDEIRTLRDQLLLLHNQLLYERFKRQQHALRNRRLLRKVIKAAALEEHNAAMKDQLKLQEKDIQMWKVSLQKEQARYNQLQEQRDTMVTKLHSQIRQLQHDREEFYNQSQELQTKLEDCRNMIAELRIELKKANNKVCHTELLLSQVSQKLSNSESVQQQMEFLNRQLLVLGEVNELYLEQLQNKHSDTTKEVEMMKAAYRKELEKNRSHVLQQTQRLDTSQKRILELESHLAKKDHLLLEQKKYLEDVKLQARGQLQAAESRYEAQKRITQVFELEILDLYGRLEKDGLLKKLEEEKAEAAEAAEERLDCCNDGCSDSMVGHNEEASGHNGETKTPRPSSARGSSGSRGGGGSSSSSSELSTPEKPPHQRAGPFSSRWETTMGEASASIPTTVGSLPSSKSFLGMKARELFRNKSESQCDEDGMTSSLSESLKTELGKDLGVEAKIPLNLDGPHPSPPTPDSVGQLHIMDYNETHHEHS
